For part of these data: Negatives hold for the conditions tested. Where a protein sequence is shown, tags need not be part of it. For part of these data: Construct, isoform or probe ends are uncertain for at least one entry. For part of these data: A weaker result is weaker than the reference pair of the same experiment.
What was measured:
[1] = biological target: T1, Mss116 helicase core D1D2, MBP-tagged (UniProt P15424); assay: fluorescence anisotropy; settings: no stable closed state, 20 mM Tris-HCl pH 7.5, 100 mM KCl, 10% glycerol, 1 mM DTT, 5 mM MgCl2, 0.1 mg/ml BSA, 22 C, >=1 h, SEC with 200 mM KCl, recombinant protein, residues 88-597, protein details: N-terminal MBP (MalE), label: 5' FAM
T1 sequence (looked up): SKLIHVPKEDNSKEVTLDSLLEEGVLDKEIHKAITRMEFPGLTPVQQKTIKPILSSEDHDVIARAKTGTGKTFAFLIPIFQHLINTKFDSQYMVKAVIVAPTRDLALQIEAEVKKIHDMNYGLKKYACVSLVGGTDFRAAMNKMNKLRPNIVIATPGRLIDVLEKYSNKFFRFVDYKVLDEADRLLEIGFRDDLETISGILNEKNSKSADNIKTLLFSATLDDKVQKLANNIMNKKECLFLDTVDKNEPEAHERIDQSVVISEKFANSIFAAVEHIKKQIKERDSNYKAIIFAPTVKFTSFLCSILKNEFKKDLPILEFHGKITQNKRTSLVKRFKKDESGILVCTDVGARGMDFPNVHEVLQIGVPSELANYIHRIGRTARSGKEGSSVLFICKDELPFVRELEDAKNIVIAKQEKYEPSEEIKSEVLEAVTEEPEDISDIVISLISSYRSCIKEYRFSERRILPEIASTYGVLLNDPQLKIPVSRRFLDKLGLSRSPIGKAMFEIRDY

[2] = biological target: T2, Mss116 helicase core D1D2 (UniProt P15424); assay: SEC; settings: 5 mM UDP-BeFx, A260/A280 1.0, open, complex not maintained; 20 mM Tris-HCl pH 7.5, 100 mM KCl, 10% glycerol, 1 mM DTT, 5 mM MgCl2, 0.1 mg/ml BSA, 22 C, >=1 h; SEC with 200 mM KCl, no BSA; recombinant protein; residues 88-597
T2 sequence (looked up): T1 sequence (looked up)

Sequence | binding result ([1]; 10 mM ADP + Pi 0-100 mM) | binding result ([1]; ADP 0-10 mM) | binding result [2]
AAAAAAAAAA [A10-RNA, 5' FAM] | no binding | no binding | 
AAAAAAAAAA [A10-RNA] |  |  | binds more weakly

— article PMC4383044, “Molecular insights into RNA and DNA helicase evolution from the determinants of specificity for a DEAD-box RNA helicase” (eLife, 2014)
